Reference: PubChem BioAssay AID652243 (Drosophila RNAi Screening Center, 2013)

Assay: 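Fly genes required for human androgen receptor driven transcription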 (primary screen)
Cells: Drosophila S2R+ cells
Reagent: long dsRNA against Drosophila genes
Duration: 72 h (48 h, then 24 h hormone)
Treatment: synthetic androgen R1881 at 10 nM for 24 h
Measurement: 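Per-well raw luminescence of the androgen-driven firefly reporter and of the Renilla control, two replicates each, without normalisation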
Reading the numbers: firefly reporter light: higher = more light from androgen-responsive reporter; Renilla control light: higher = more constitutive control signal (cell number, transfection)
Active means: 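Hit when the log firefly-to-Renilla ratio dropped or increased by a fixed fold versus the mean of GFP or LacZ controls across duplicate plates; lowering cut given as 1.5 and as 3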
Meaning of the calls: active = hit: reporter lowered or raised; inactive = no hit
The deposit covers about 24,000 reagents; shown is a random part of those with a known target gene and a result. In the full data, 246 (1%) are marked active. 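Plates not normalised; calls are printed but the firefly/Renilla ratio behind them is not deposited; fold cut for lowering reported inconsistently.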 Raw values vary from plate to plate and are shown uncorrected. A plus sign joins genes that one reagent is predicted to hit. Not given: the amount of reagent.

ergic53 [DRSC11389]
- firefly reporter light, replicate 1: 1.70e5
- firefly reporter light, replicate 2: 2.14e5
- Renilla control light, replicate 1: 3.09e6
- Renilla control light, replicate 2: 2.32e6
- activity call: inactive

Bap60 (Brahma associated protein 60kD) [DRSC19337]
- firefly reporter light, replicate 1: 1.13e5
- firefly reporter light, replicate 2: 1.13e5
- Renilla control light, replicate 1: 4.90e5
- Renilla control light, replicate 2: 4.18e5
- activity call: inactive

Rcd4 (Reduction in Cnn dots 4) [DRSC02597]
- firefly reporter light, replicate 1: 2.34e5
- firefly reporter light, replicate 2: 91690
- Renilla control light, replicate 1: 1.67e6
- Renilla control light, replicate 2: 9.13e5
- activity call: inactive

zormin [DRSC07969]
- firefly reporter light, replicate 1: 1.76e5
- firefly reporter light, replicate 2: 2.16e5
- Renilla control light, replicate 1: 3.95e5
- Renilla control light, replicate 2: 5.71e5
- activity call: inactive

zormin [DRSC08210]
- firefly reporter light, replicate 1: 1.30e5
- firefly reporter light, replicate 2: 1.93e5
- Renilla control light, replicate 1: 1.04e6
- Renilla control light, replicate 2: 1.04e6
- activity call: inactive

zormin [DRSC08212]
- firefly reporter light, replicate 1: 1.13e5
- firefly reporter light, replicate 2: 1.32e5
- Renilla control light, replicate 1: 5.90e5
- Renilla control light, replicate 2: 7.62e5
- activity call: inactive

zormin [DRSC08213]
- firefly reporter light, replicate 1: 67588
- firefly reporter light, replicate 2: 92507
- Renilla control light, replicate 1: 7.13e5
- Renilla control light, replicate 2: 7.76e5
- activity call: inactive

zormin [DRSC08297]
- firefly reporter light, replicate 1: 1.07e5
- firefly reporter light, replicate 2: 89091
- Renilla control light, replicate 1: 1.11e6
- Renilla control light, replicate 2: 1.15e6
- activity call: inactive

zormin [DRSC22483]
- firefly reporter light, replicate 1: 4.51e5
- firefly reporter light, replicate 2: 7.25e5
- Renilla control light, replicate 1: 1.49e6
- Renilla control light, replicate 2: 1.96e6
- activity call: inactive

CG14414 [DRSC19599]
- firefly reporter light, replicate 1: 3.50e5
- firefly reporter light, replicate 2: 3.64e5
- Renilla control light, replicate 1: 3.79e6
- Renilla control light, replicate 2: 4.05e6
- activity call: inactive

CG33639 [DRSC19966]
- firefly reporter light, replicate 1: 3.61e5
- firefly reporter light, replicate 2: 3.76e5
- Renilla control light, replicate 1: 2.76e6
- Renilla control light, replicate 2: 2.81e6
- activity call: inactive

CG33639 [DRSC22820]
- firefly reporter light, replicate 1: 4.49e5
- firefly reporter light, replicate 2: 8.82e5
- Renilla control light, replicate 1: 9.38e5
- Renilla control light, replicate 2: 1.55e6
- activity call: inactive

CG33639 [DRSC23778]
- firefly reporter light, replicate 1: 8.38e5
- firefly reporter light, replicate 2: 9.07e5
- Renilla control light, replicate 1: 9.69e5
- Renilla control light, replicate 2: 8.38e5
- activity call: inactive

Next part; the last 2 above are carried over.
CG33639 [DRSC22820]
- firefly reporter light, replicate 1: 4.49e5
- firefly reporter light, replicate 2: 8.82e5
- Renilla control light, replicate 1: 9.38e5
- Renilla control light, replicate 2: 1.55e6
- activity call: inactive

CG33639 [DRSC23778]
- firefly reporter light, replicate 1: 8.38e5
- firefly reporter light, replicate 2: 9.07e5
- Renilla control light, replicate 1: 9.69e5
- Renilla control light, replicate 2: 8.38e5
- activity call: inactive

MED14 (Mediator complex subunit 14) [DRSC08235]
- firefly reporter light, replicate 1: 3.14e5
- firefly reporter light, replicate 2: 1.80e5
- Renilla control light, replicate 1: 9.03e5
- Renilla control light, replicate 2: 4.90e5
- activity call: inactive

MED14 (Mediator complex subunit 14) [DRSC23587]
- firefly reporter light, replicate 1: 1.27e5
- firefly reporter light, replicate 2: 1.94e5
- Renilla control light, replicate 1: 4.90e5
- Renilla control light, replicate 2: 3.74e5
- activity call: inactive

CG5783 [DRSC02894]
- firefly reporter light, replicate 1: 2.20e5
- firefly reporter light, replicate 2: 2.82e5
- Renilla control light, replicate 1: 2.37e6
- Renilla control light, replicate 2: 2.19e6
- activity call: inactive

CG3548 [DRSC04387]
- firefly reporter light, replicate 1: 7.29e5
- firefly reporter light, replicate 2: 7.72e5
- Renilla control light, replicate 1: 1.65e6
- Renilla control light, replicate 2: 1.79e6
- activity call: inactive

CG3548 [DRSC29938]
- firefly reporter light, replicate 1: 5.73e5
- firefly reporter light, replicate 2: 4.45e5
- Renilla control light, replicate 1: 1.20e6
- Renilla control light, replicate 2: 1.34e6
- activity call: inactive

CG5359 + Spn85F [DRSC26211]
- firefly reporter light, replicate 1: 4.39e5
- firefly reporter light, replicate 2: 4.03e5
- Renilla control light, replicate 1: 5.89e5
- Renilla control light, replicate 2: 6.68e5
- activity call: inactive

Bet1 (Blocked early in transport 1) [DRSC10088]
- firefly reporter light, replicate 1: 2.80e5
- firefly reporter light, replicate 2: 1.76e5
- Renilla control light, replicate 1: 1.43e6
- Renilla control light, replicate 2: 1.19e6
- activity call: inactive

TotE (Turandot E) [DRSC21355]
- firefly reporter light, replicate 1: 5.68e5
- firefly reporter light, replicate 2: 4.17e5
- Renilla control light, replicate 1: 1.33e6
- Renilla control light, replicate 2: 1.32e6
- activity call: inactive
